The values below come from article PMC10724148.

Chains of the proteins cited; added tags and fusions are not shown. Residues count along the entry.
UniProt Q6UB28, residues 44-335: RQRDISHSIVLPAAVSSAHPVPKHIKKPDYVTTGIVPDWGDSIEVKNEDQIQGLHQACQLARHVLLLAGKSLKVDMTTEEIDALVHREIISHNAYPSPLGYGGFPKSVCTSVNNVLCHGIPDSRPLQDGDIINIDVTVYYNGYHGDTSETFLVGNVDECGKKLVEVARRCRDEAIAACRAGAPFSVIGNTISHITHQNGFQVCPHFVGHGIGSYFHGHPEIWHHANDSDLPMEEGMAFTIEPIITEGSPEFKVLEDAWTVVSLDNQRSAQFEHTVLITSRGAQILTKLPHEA

Results are given in words; binding and its absence hold for the method and conditions named.

In this experiment the target is human mitochondrial methionine aminopeptidase MetAP1D (residues 44-335) (human) (UniProt Q6UB28). Kind of experiment: SEC; HiLoad 16/600 Superdex 200 pg; 25 mM Tris-HCl pH 8.0, 100 mM sodium chloride, 0.5 mM TCEP; peak compared with standard proteins; both purified.

For “human mitochondrial methionine aminopeptidase MetAP1D (residues 44-335) (from UniProt Q6UB28 44-335) (enzyme)”, the binding entry is reported as “no binding”.
